Reference: PubChem BioAssay AID1508597 (Cure First, 2020)
This is a random part of the about 2,100 reagents, under one of the conditions tested. 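Calls flag viability under 80% in either arm, not effects specific to rucaparib; the reference for percent is not stated.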 Not given: the 100% reference.

- Purpose: 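Genes whose silencing sensitises or protects ovarian cancer cells against rucaparib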 (primary screen)
- Cell system: human ovarian carcinoma lines grown from tumours: OCI-P5x (papillary serous) and OCI-C5x (clear cell)
- Reagents: siRNA pool against human genes, 1.25 pmol siRNA per well
- Duration: 72 h or 96 h, depending on the cell culture
- Challenge: rucaparib 20 µM (about IC30) or vehicle, present until read-out
- Rucaparib or vehicle: Vehicle
- Cell line: OCI-C5x (clear cell)
- Measured: 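Luminescent ATP-based viability assay read 72 or 96 h after transfection, depending on culture, given as normalised percent viability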
- Scale: viability, normalised: higher = more viable cells remaining
- Call rule: 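a well counts as a hit if its normalised viability is under 80 percent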
- Calls: active = viability under 80%; inactive = viability 80% or more

target gene	technical replicate	viability, normalised (%)	activity call
DUT (deoxyuridine triphosphatase)	1	46.3	active
DUT (deoxyuridine triphosphatase)	2	44.3	active
DUT (deoxyuridine triphosphatase)	3	36.4	active
PTPRC (protein tyrosine phosphatase receptor type C)	1	45.1	active
PTPRC (protein tyrosine phosphatase receptor type C)	2	31.8	active
PTPRC (protein tyrosine phosphatase receptor type C)	3	38.4	active
TNK1 (tyrosine kinase non receptor 1)	1	67.4	active
TNK1 (tyrosine kinase non receptor 1)	2	43.9	active
TNK1 (tyrosine kinase non receptor 1)	3	56.9	active
ERBB3 (erb-b2 receptor tyrosine kinase 3)	1	49.2	active
ERBB3 (erb-b2 receptor tyrosine kinase 3)	2	44.1	active
ERBB3 (erb-b2 receptor tyrosine kinase 3)	3	40.2	active
ATAT1 (alpha tubulin acetyltransferase 1)	1	38.8	active
ATAT1 (alpha tubulin acetyltransferase 1)	2	42.3	active
ATAT1 (alpha tubulin acetyltransferase 1)	3	40	active
MAST3 (microtubule associated serine/threonine kinase 3)	1	57.3	active
MAST3 (microtubule associated serine/threonine kinase 3)	2	54.1	active
MAST3 (microtubule associated serine/threonine kinase 3)	3	63.7	active
ABCC1	1	39.9	active
ABCC1	2	54	active
ABCC1	3	41.4	active
KIT (KIT proto-oncogene, receptor tyrosine kinase)	1	62.1	active
KIT (KIT proto-oncogene, receptor tyrosine kinase)	2	54.1	active
KIT (KIT proto-oncogene, receptor tyrosine kinase)	3	50.2	active
BRWD3 (bromodomain and WD repeat domain containing 3)	1	44	active
BRWD3 (bromodomain and WD repeat domain containing 3)	2	50.2	active
BRWD3 (bromodomain and WD repeat domain containing 3)	3	54.5	active
PRKCQ (protein kinase C theta)	1	72.1	active
PRKCQ (protein kinase C theta)	2	96.6	inactive
PRKCQ (protein kinase C theta)	3	67.4	active
SMARCA2	1	40	active
SMARCA2	2	43.8	active
SMARCA2	3	52.7	active
CHD7 (chromodomain helicase DNA binding protein 7)	1	39.1	active
CHD7 (chromodomain helicase DNA binding protein 7)	2	40.1	active
CHD7 (chromodomain helicase DNA binding protein 7)	3	50.9	active

Laid out differently: 8 of the entries above.
| target gene | technical replicate | viability, normalised (%) | activity call |
| --- | --- | --- | --- |
| ERBB3 (erb-b2 receptor tyrosine kinase 3) | 3 | 40.2 | active |
| ATAT1 (alpha tubulin acetyltransferase 1) | 1 | 38.8 | active |
| ATAT1 (alpha tubulin acetyltransferase 1) | 2 | 42.3 | active |
| ATAT1 (alpha tubulin acetyltransferase 1) | 3 | 40 | active |
| MAST3 (microtubule associated serine/threonine kinase 3) | 1 | 57.3 | active |
| MAST3 (microtubule associated serine/threonine kinase 3) | 2 | 54.1 | active |
| MAST3 (microtubule associated serine/threonine kinase 3) | 3 | 63.7 | active |
| ABCC1 | 1 | 39.9 | active |

Next results:
target gene	technical replicate	viability, normalised (%)	activity call
BAZ2B (bromodomain adjacent to zinc finger domain 2B)	1	26.6	active
BAZ2B (bromodomain adjacent to zinc finger domain 2B)	2	38.1	active
BAZ2B (bromodomain adjacent to zinc finger domain 2B)	3	32.6	active
WDR82 (WD repeat domain 82)	1	50.5	active
WDR82 (WD repeat domain 82)	2	68.4	active
WDR82 (WD repeat domain 82)	3	54.6	active
SETD4 (SET domain containing 4)	1	55.9	active
SETD4 (SET domain containing 4)	2	61.4	active
SETD4 (SET domain containing 4)	3	64.7	active
CDKN2A (cyclin dependent kinase inhibitor 2A)	1	40.7	active
CDKN2A (cyclin dependent kinase inhibitor 2A)	2	44	active
CDKN2A (cyclin dependent kinase inhibitor 2A)	3	34	active
BMP2K (BMP2 inducible kinase)	1	67.1	active
BMP2K (BMP2 inducible kinase)	2	57	active
BMP2K (BMP2 inducible kinase)	3	57	active
EZH2 (enhancer of zeste 2 polycomb repressive complex 2 subunit)	1	60.6	active
EZH2 (enhancer of zeste 2 polycomb repressive complex 2 subunit)	2	49.8	active
EZH2 (enhancer of zeste 2 polycomb repressive complex 2 subunit)	3	40.8	active
WNT5A (Wnt family member 5A)	1	46.5	active
WNT5A (Wnt family member 5A)	2	60.1	active
WNT5A (Wnt family member 5A)	3	51.3	active
